# Source: the supplement of paper PMC8728848
# The other results are listed elsewhere or left out.
# Experiments:
# Experiment in all cases: glycan array binding signal (z-score within array); higher = stronger binding
# Details in all cases: glycan notation: IUPAC condensed, linker removed
# [1] = molecular target: Man(a1-2)Man(a1-3)[Man(a1-2)Man(a1-6)]Man(a1-6)[Man(a1-2)Man(a1-2)Man(a1-3)]Man
# Summary of the method: (§1)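 Glycan array binding is given as a within-array Z-score, which can be read as non-binding when negative. The arrays, 3228 of them, came from the Consortium for Functional Glycomics database and were retained only where the protein sequence was available. Z-scores were averaged across arrays of the same protein sequence at different concentrations or buffers and across linkers.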
# [2] = molecular target: Man(a1-2)Man(a1-3)[Man(a1-2)Man(a1-6)]Man(a1-6)[Man(a1-2)Man(a1-2)Man(a1-3)]Man(b1-4)GlcNAc(b1-4)GlcNAc
# Summary of the method: as §1
# [3] = molecular target: Man(a1-2)Man(a1-3)[Man(a1-6)]Man(a1-6)[Man(a1-2)Man(a1-3)]Man(b1-4)GlcNAc(b1-4)GlcNAc
# Summary of the method: as §1
# [4] = molecular target: Man(a1-2)Man(a1-6)[Man(a1-3)]Man(a1-6)[Man(a1-2)Man(a1-2)Man(a1-3)]Man
# Summary of the method: as §1
# [5] = molecular target: Man(a1-2)Man(a1-6)[Man(a1-3)]Man(a1-6)[Man(a1-2)Man(a1-2)Man(a1-3)]Man(b1-4)GlcNAc(b1-4)GlcNAc
# Summary of the method: as §1
# [6] = molecular target: Man(a1-3)[Man(a1-6)]Man
# Summary of the method: as §1
# [7] = molecular target: Man(a1-3)[Man(a1-6)]Man(a1-6)[Man(a1-2)Man(a1-3)]Man(b1-4)GlcNAc(b1-4)GlcNAc
# Summary of the method: as §1
# [8] = molecular target: Man(a1-3)[Man(a1-6)]Man(a1-6)[Man(a1-3)]Man
# Summary of the method: as §1
# [9] = molecular target: Man(a1-3)[Man(a1-6)]Man(a1-6)[Man(a1-3)]Man(b1-4)GlcNAc(b1-4)GlcNAc
# Summary of the method: as §1
# [10] = molecular target: Man(a1-3)[Man(a1-6)]Man(b1-4)GlcNAc(b1-4)GlcNAc
# Summary of the method: as §1
# [11] = molecular target: Man(a1-3)[Man(a1-6)]Man(b1-4)GlcNAc(b1-4)[Fuc(a1-6)]GlcNAc
# Summary of the method: as §1
# [12] = molecular target: Man(a1-6)Man
# Summary of the method: as §1
# [13] = molecular target: Man(b1-4)GlcNAc
# Summary of the method: as §1
# [14] = molecular target: MurNAc(b1-4)GlcNAc
# Summary of the method: as §1
# [15] = molecular target: Neu5Ac(a2-3)Gal
# Summary of the method: as §1
# [16] = molecular target: Neu5Ac(a2-3)Gal(b1-3)GalNAc
# Summary of the method: as §1
# [17] = molecular target: Neu5Ac(a2-3)Gal(b1-3)GalNAc(b1-3)Gal(a1-4)Gal(b1-4)Glc
# Summary of the method: as §1
# [18] = molecular target: Neu5Ac(a2-3)Gal(b1-3)GalNAc(b1-4)[Neu5Ac(a2-3)]Gal(b1-4)Glc
# Summary of the method: as §1
# [19] = molecular target: Neu5Ac(a2-3)Gal(b1-3)GalNAc(b1-4)[Neu5Ac(a2-8)Neu5Ac(a2-3)]Gal(b1-4)Glc
# Summary of the method: as §1
# [20] = molecular target: Neu5Ac(a2-3)Gal(b1-3)GalNAc6S
# Summary of the method: as §1
# [21] = molecular target: Neu5Ac(a2-3)Gal(b1-3)GlcNAc
# Summary of the method: as §1
# [22] = molecular target: Neu5Ac(a2-3)Gal(b1-3)GlcNAc(b1-2)Man
# Summary of the method: as §1
# [23] = molecular target: Neu5Ac(a2-3)Gal(b1-3)GlcNAc(b1-2)Man(a1-3)[GlcNAc(b1-4)][Neu5Ac(a2-3)Gal(b1-3)GlcNAc(b1-2)Man(a1-6)]Man(b1-4)GlcNAc(b1-4)GlcNAc
# Summary of the method: as §1
# [24] = molecular target: Neu5Ac(a2-3)Gal(b1-3)GlcNAc(b1-2)Man(a1-3)[Neu5Ac(a2-3)Gal(b1-3)GlcNAc(b1-2)Man(a1-6)]Man(b1-4)GlcNAc(b1-4)GlcNAc
# Summary of the method: as §1
# [25] = molecular target: Neu5Ac(a2-3)Gal(b1-3)GlcNAc(b1-3)Gal(b1-3)GlcNAc
# Summary of the method: as §1
# [26] = molecular target: Neu5Ac(a2-3)Gal(b1-3)GlcNAc(b1-3)Gal(b1-4)GlcNAc
# Summary of the method: as §1
# [27] = molecular target: Neu5Ac(a2-3)Gal(b1-3)GlcNAc(b1-3)GalNAc
# Summary of the method: as §1
# [28] = molecular target: Neu5Ac(a2-3)Gal(b1-3)GlcNAc(b1-4)Gal(b1-4)Glc
# Summary of the method: as §1
# [29] = molecular target: Neu5Ac(a2-3)Gal(b1-3)GlcNAc(b1-6)GalNAc
# Summary of the method: as §1
# [30] = molecular target: Neu5Ac(a2-3)Gal(b1-3)GlcNAc6S
# Summary of the method: as §1
# [31] = molecular target: Neu5Ac(a2-3)Gal(b1-3)[Fuc(a1-4)]GlcNAc
# Summary of the method: as §1
# [32] = molecular target: Neu5Ac(a2-3)Gal(b1-3)[Fuc(a1-4)]GlcNAc(b1-3)Gal(b1-3)[Fuc(a1-4)]GlcNAc
# Summary of the method: as §1
# [33] = molecular target: Neu5Ac(a2-3)Gal(b1-3)[Fuc(a1-4)]GlcNAc(b1-3)Gal(b1-4)[Fuc(a1-3)]GlcNAc
# Summary of the method: as §1
# [34] = molecular target: Neu5Ac(a2-3)Gal(b1-3)[GlcNAc(b1-6)]GalNAc
# Summary of the method: as §1
# [35] = molecular target: Neu5Ac(a2-3)Gal(b1-3)[Neu5Ac(a2-6)]GalNAc
# Summary of the method: as §1
# [36] = molecular target: Neu5Ac(a2-3)Gal(b1-3)[Neu5Ac(a2-6)]GlcNAc(b1-3)[Fuc(a1-3)[Gal(b1-4)]GlcNAc(b1-6)]Gal(b1-4)Glc
# Summary of the method: as §1
# [37] = molecular target: Neu5Ac(a2-3)Gal(b1-3)]Neu5Ac(a2-3)Gal(b1-4)]GlcNAc
# Summary of the method: as §1
binder,measurement,setting,value
FimA (Actinomyces oris) (protein) MHHHHHHSSGVDLGTENLYFQSNAETPNYGNIKTDATGSLVIHKHLTGGGKDIGTPTGTAQNADDKGPAVEGVVFTAYPITDINLKDPAGWDTISNLSRTGVPDSACANPAAPTLGAHQFGTPKVSPATTKEGLATITEMPVQAYLVCETTTPGDIVQKAKPFVVTIPHPNTAAGADGQWIYDVNVYPKNEAIDVDKTIQAQKLNGYGVGSLIKFPVESTAPTLDAKSFYKYFQLKDTLDERLSEVTATDVSLEGTPLQPTDYKVETKQQTVTVTFTAEGLKKIKAAPGKKVSAVFQGKVTKAGNGAITNRAQVISDTLYAEQPPTPETPPTDPENPPTSDEVISRWGDLSIKKVDTHQQGQTKAGLQGAQFQLYKAKNAYANTCSNEKEGAPIAINGQTTLTTDAQGAIDIKGLFISDSIDGADRDNQVNAMERCYVLVETKAPAGYVLPAGNGAATPVKVKAGEETTDNVTVENTKQSVPGLPLTG,glycan array binding signal (z-score),[1],-0.88
same,glycan array binding signal (z-score),[2],-0.287
same,glycan array binding signal (z-score),[3],-0.305
same,glycan array binding signal (z-score),[4],1.04
same,glycan array binding signal (z-score),[5],-0.731
same,glycan array binding signal (z-score),[6],-0.855
same,glycan array binding signal (z-score),[7],-0.564
same,glycan array binding signal (z-score),[8],-0.202
same,glycan array binding signal (z-score),[9],-0.139
same,glycan array binding signal (z-score),[10],-0.828
same,glycan array binding signal (z-score),[11],-0.382
same,glycan array binding signal (z-score),[12],1.94
same,glycan array binding signal (z-score),[13],-0.752
same,glycan array binding signal (z-score),[14],-0.095
same,glycan array binding signal (z-score),[15],-0.143
same,glycan array binding signal (z-score),[16],0.797
same,glycan array binding signal (z-score),[17],0.229
same,glycan array binding signal (z-score),[18],-0.196
same,glycan array binding signal (z-score),[19],-0.32
same,glycan array binding signal (z-score),[20],-0.76
same,glycan array binding signal (z-score),[21],-0.291
same,glycan array binding signal (z-score),[22],0.847
same,glycan array binding signal (z-score),[23],-0.298
same,glycan array binding signal (z-score),[24],-0.233
same,glycan array binding signal (z-score),[25],-0.254
same,glycan array binding signal (z-score),[26],-0.513
same,glycan array binding signal (z-score),[27],-0.515
same,glycan array binding signal (z-score),[28],0.409
same,glycan array binding signal (z-score),[29],-0.778
same,glycan array binding signal (z-score),[30],-0.22
same,glycan array binding signal (z-score),[31],2.89
same,glycan array binding signal (z-score),[32],-0.284
same,glycan array binding signal (z-score),[33],0.196
same,glycan array binding signal (z-score),[34],-0.273
same,glycan array binding signal (z-score),[35],-0.09
same,glycan array binding signal (z-score),[36],-0.358
same,glycan array binding signal (z-score),[37],-0.537

# Looked up one by one from the entries so far (three):
binder,measurement,setting,value
FimA (Actinomyces oris) (protein) MHHHHHHSSGVDLGTENLYFQSNAETPNYGNIKTDATGSLVIHKHLTGGGKDIGTPTGTAQNADDKGPAVEGVVFTAYPITDINLKDPAGWDTISNLSRTGVPDSACANPAAPTLGAHQFGTPKVSPATTKEGLATITEMPVQAYLVCETTTPGDIVQKAKPFVVTIPHPNTAAGADGQWIYDVNVYPKNEAIDVDKTIQAQKLNGYGVGSLIKFPVESTAPTLDAKSFYKYFQLKDTLDERLSEVTATDVSLEGTPLQPTDYKVETKQQTVTVTFTAEGLKKIKAAPGKKVSAVFQGKVTKAGNGAITNRAQVISDTLYAEQPPTPETPPTDPENPPTSDEVISRWGDLSIKKVDTHQQGQTKAGLQGAQFQLYKAKNAYANTCSNEKEGAPIAINGQTTLTTDAQGAIDIKGLFISDSIDGADRDNQVNAMERCYVLVETKAPAGYVLPAGNGAATPVKVKAGEETTDNVTVENTKQSVPGLPLTG,glycan array binding signal (z-score),[29],-0.778
same,glycan array binding signal (z-score),[6],-0.855
same,glycan array binding signal (z-score),[25],-0.254
